Experimental data: publication PMC4960799
These are yes or no findings as the source states them, for the method shown. In cells and extracts the contact can be indirect. Some binding calls cover weakened binding; strength is not graded here.

Amino acid sequences for entries named in this document (tags omitted).
UniProt P20152: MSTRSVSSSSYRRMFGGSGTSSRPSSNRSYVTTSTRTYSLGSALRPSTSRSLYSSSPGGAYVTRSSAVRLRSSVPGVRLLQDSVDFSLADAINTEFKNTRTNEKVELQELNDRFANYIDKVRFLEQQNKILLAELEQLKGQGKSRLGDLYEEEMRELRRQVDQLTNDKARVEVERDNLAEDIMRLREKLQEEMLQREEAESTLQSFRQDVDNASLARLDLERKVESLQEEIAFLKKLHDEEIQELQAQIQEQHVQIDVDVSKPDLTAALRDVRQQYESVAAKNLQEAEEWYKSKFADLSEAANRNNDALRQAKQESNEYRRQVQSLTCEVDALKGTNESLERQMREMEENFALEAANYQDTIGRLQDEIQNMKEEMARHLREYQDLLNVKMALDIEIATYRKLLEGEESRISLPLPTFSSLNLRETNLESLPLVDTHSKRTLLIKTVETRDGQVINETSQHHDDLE

Molecular target: vimentin (mouse (endogenous in tracheal rings)) (UniProt P20152)
Experiment: co-sedimentation; intermediate filament fractionation: mouse tracheal rings (untreated, okadaic acid 10^-6 M, or control/PP1 shRNA with ACh) homogenised in 1 % Nonidet P-40, 10 % glycerol, 20 mM Hepes pH 7.6, 150 mM NaCl, 37 °C 30 min; insoluble (cytoskeletal) fraction collected at 5,200 rpm, 4 °C, 30 min; equal amounts of cytoskeletal vimentin blotted for p130CAS and vimentin

B1: p130 Crk-associated substrate (protein, UniProt Q61140 1-874)
chain: MTVPNVLAKALYDNVAESPDELSFRKGDIMTVLERDTQGLDGWWLCSLHGRQGIVPGNRLKILVGMYDKKPVGPGPGPPATPPQPQPSLPQGVHAPVPPASQYSPMLPTAYQPQSDNVYLVPTPSKTQQGLYQAPGPNPQFQSPPAKQTSTFSKQTPHHSFPSPATDLYQVPPGPGSPAQDIYQVPPSAGIGHDIYQVPPSLDTRGWEGTKPPAKVVVPTRVGQGYVYEAAQTEQDEYDTPRHLLAPGPQDIYDVPPVRGLLPNQYGQEVYDTPPMAVKGPNGRDPLLDVYDVPPSVEKGLLSSSHHSVYDVPPSVSKDVPDGPLLREETYDVPPAFAKPKPFDPTRHPLILAAPPPDSPAAEDVYDVPPPAPDLYDVPPGLRRPGPGTLYDVPRERVLPPEVADGSVVDDGVYAVPPPAEREAPTDGKRLSASSTGSTRSSQSASSLEVVVPGREPLELEVAVESLARLQQGVSTTVAHLLDLVGSASGPGGWRGTSEPQEPPAQDLKAAVAAVHGAVHELLEFARGAVSNATHTSDRTLHAKLSRQLQKMEDVYQTLVVHGQVLDSGRGSPGFTPEDLDRLVACSRAVPEDAKQLASFLHGNASLLFRRTKAPGPGPEGSSSLHPNPTDKASSIQSRPLPSPPKFTSQDSPDGQYENSEGGWMEDYDYVHLQGKEEFEKTQKELLERGNIMRQGKGQLELQQLKQFERLEQEVSRPIDHDLANWTPAQPLVPGRTGGLGPSDRQLLLFYLEQCEANLTTLTDAVDAFFTAVATNQPPKIFVAHSKFVILSAHKLVFIGDTLSRQAKAADVRSQVTHYSNLLCDLLRGIVATTKAAALQYPSPSAAQDMVDRVKELGHSTQQFRRVLGQLAAA
- binding: binds
